Data reported in US7582631B2, “Substituted heterocyclic compounds and methods of use” (Amgen Inc., priority 2004, dated 2009).
Some of these results come from one statement about several compounds together.

The chains behind the UniProt entries cited, without tags or fusion partners. Residues count along the entry.
UniProt Q04759, 380-634 limits assumed: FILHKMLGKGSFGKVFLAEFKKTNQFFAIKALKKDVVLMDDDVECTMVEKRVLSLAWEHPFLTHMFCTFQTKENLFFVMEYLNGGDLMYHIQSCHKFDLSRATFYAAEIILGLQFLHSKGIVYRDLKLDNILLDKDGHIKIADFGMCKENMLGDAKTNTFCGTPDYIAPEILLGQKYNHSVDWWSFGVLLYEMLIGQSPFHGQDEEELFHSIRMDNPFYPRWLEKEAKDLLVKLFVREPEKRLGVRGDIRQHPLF

What follows are molecules tested against PKCθ (Homo sapiens, UniProt Q04759) (assay: PKCθ Homogeneous Time Resolved Fluorescent (HTRF) Kinase Assay). Conditions: read-out: activity in the PKCθ HTRF assay; ATP 25 μM, PKCθ 100 pM, 60 min.

IC50, < 50 µM:
CC(C)N1CC2CC1CN2c1nc(-c2ccnc(N[C@@H](C)C3CCCCC3)c2)cc2nccn12 (stereo partly drawn) [Example 86, N-((1S)-1-cyclohexylethyl)-4-(5-(5-(1-methylethyl)-2,5-diazabicyclo[2.2. 1]hept-2-yl)imidazo[1,2-c]pyrimidin-7-yl)-2-pyridinamine]
CC(C)CN1CC2CC1CN2c1nc(-c2ccnc(N[C@@H](C)c3ccccc3)c2)cc2nccn12 (stereo partly drawn) [Example 111, 4-(5-(5-(2-methylpropyl)-2,5-diazabicyclo[2.2.1]hept-2-yl)imidazo[1,2-c]pyrimidin-7-yl)-N-((1S)-1-phenylethyl)-2-pyridinamine]
CC(C)N1CC2CC1CN2c1nn(-c2ccnc(N[C@@H](C)c3ccccc3)c2)c2ccc(F)cc12 (stereo partly drawn) [Example 145, 4-(5-fluoro-3-(5-(1-methylethyl)-2,5-diazabicyclo[2.2.1]hept-2-yl)-1H-indazol-1-yl)-N-((1S)-1-phenylethyl)-2-pyridinamine]
CC(=O)O[C@@H](C)C(=O)N1CC2CC1CN2c1nc(-c2ccnc(N[C@@H](C)c3ccccc3)c2)cc2nccn12 (stereo partly drawn) [Example 80, (1S)-1-methyl-2-oxo-2-(5-(7-(2-(((1S)-1-phenylethyl)amino)-4-pyridinyl)imidazo[1,2-c]pyrimidin-5-yl)-2,5-diazabicyclo[2.2.1]hept-2-yl)ethyl acetate]
CCN1CC2CC1CN2c1nc(-c2ccnc(NCc3ccccc3F)c2)cc2nccn12 (centres unmarked) [Example 135, 4-(5-(5-ethyl-2,5-diazabicyclo[2.2.1]hept-2-yl)imidazo[1,2-c]pyrimidin-7-yl)-N-((2-fluorophenyl)methyl)-2-pyridinamine]
CN1CC2CC1CN2c1nc(-c2ccnc(NCc3ccccc3)c2)cc2nccn12 (centres unmarked) [Example 125, 4-(5-(5-methyl-2,5-diazabicyclo[2.2.1]hept-2-yl)imidazo[1,2-c]pyrimidin-7-yl)-N-(phenylmethyl)-2-pyridinamine]
CC(C)N1CC2CC1CN2c1nn(-c2ccnc(N[C@@H](C)c3ccccc3)c2)c2ccccc12 (stereo partly drawn) [Example 107, 4-(3-(5-(1-methylethyl)-2,5-diazabicyclo[2.2.1]hept-2-yl)-1H-indazol-1-yl)-N-((1S)-1-phenylethyl)-2-pyridinamine]
CN1CC2CC1CN2c1nc(-c2ccnc(NCc3ccccc3F)c2)cc2nccn12 (centres unmarked) [Example 134, N-((2-fluorophenyl)methyl)-4-(5-(5-methyl-2,5-diazabicyclo[2.2.1]hept-2-yl)imidazo[1,2-c]pyrimidin-7-yl)-2-pyridinamine]
c1ccc(CNc2cc(-n3nc(N4C[C@@H]5C[C@H]4CN5)c4ccccc43)ccn2)cc1 [Example 69]
CC(C)N1C[C@@H]2C[C@H]1CN2c1nn(-c2ccnc(N[C@@H](C)c3ccccc3)c2)c2ccccc12 [Example 44, (S)-{4-[3-(5-Isopropyl-(1S,4S)-2,5-diaza-bicyclo[2.2.1]hept-2-yl)-indazol-1-yl]-pyridin-2-yl}-(1-phenyl-ethyl)-amine]
CCCCN1C[C@@H]2C[C@H]1CN2c1nc(-c2ccnc(N[C@@H](C)c3ccccc3)c2)cc2nccn12 [Example 27, (S)-{4-[5-(5-n-Butyl-(1S,4S)-2,5-diaza-bicyclo[2.2.1]hept-2-yl)-imidazo[1,2-c]pyrimidin-7-yl]-pyridin-2-yl}-(1-phenyl-ethyl)-amine]
CN1CC2CC1CN2c1nn(-c2ccnc(NCc3ccccc3)c2)c2cc(F)ccc12 (centres unmarked) [Example 157, 4-(6-fluoro-3-(5-methyl-2,5-diazabicyclo[2.2.1]hept-2-yl)-1H-indazol-1-yl)-N-(phenylmethyl)-2-pyridinamine]
CC(C)C(C)Nc1cc(-c2cc3nccn3c(N3C[C@@H]4C[C@H]3CN4)n2)ccn1 (stereo partly drawn) [Example 8, {4-[5-((1S,4S)-2,5-Diaza-bicyclo[2.2.1]hept-2-yl)-imidazo[1,2-c]pyrimidin-7-yl]-pyridin-2-yl}-(1 ,2-dimethyl-propyl)-amine]
C[C@H](Nc1cc(-n2nc(N3C[C@@H]4C[C@H]3CN4C(=O)OC(C)(C)C)c3ccccc32)ccn1)c1ccccc1 [Example 42, 5-{1-[2-((S)-1-Phenyl-ethylamino)-pyridin-4-yl]-1H-indazol-3-yl}-(1S,4S)-2,5-diaza-bicyclo[2.2.1]heptane-2-carboxylic acid tert-butyl ester]
C[C@H](Nc1cc(-c2cc3ncnn3c(N3C[C@@H]4C[C@H]3CN4)n2)ccn1)c1cccc2ccccc12 [Example 17, (S)-{4-[5-((1S,4S)-2,5-Diaza-bicyclo[2.2.1]hept-2-yl)-[1,2,4]triazolo[1,5-c]pyrimidin-7-yl]-pyridin-2-yl}-(1-naphthalen-1-yl-ethyl)-amine]
C[C@H](Nc1cc(-n2nc(N3CC4CC3CN4)c3cc(F)ccc32)ccn1)c1ccccc1 (stereo partly drawn) [Example 139, 4-(3-(2,5-diazabicyclo[2.2.1]hept-2-yl)-5-fluoro-1H-indazol-1-yl)-N-((1S)-1-phenylethyl)-2-pyridinamine]
CSc1nc(-c2ccnc(N[C@@H](C)c3ccccc3)c2)cc(N2C[C@@H]3C[C@H]2CN3)n1 [Example 12, (S)-{4-[6-((1S,4S)-2,5-Diaza-bicyclo[2.2.1]hept-2-yl)-2-methylsulfanyl-pyrimidin-4-yl]-pyridin-2-yl}-(1-phenyl-ethyl)-amine]
C[C@H](Nc1cc(-n2nc(N3CC4CC3CN4)c3cccc(F)c32)ccn1)c1ccccc1 (stereo partly drawn) [Example 152, 4-(3-(2,5-diazabicyclo[2.2.1]hept-2-yl)-7-fluoro-1H-indazol-1-yl)-N-((1S)-1-phenylethyl)-2-pyridinamine]
COc1ccc([C@H](C)Nc2cc(-c3cc4nccn4c(N4CC5CC4CN5C(C)C)n3)ccn2)cc1 (stereo partly drawn) [Example 99, 4-(5-(5-(1-methylethyl)-2,5-diazabicyclo[2.2.1]hept-2-yl)imidazo[1,2-c]pyrimidin-7-yl)-N-((1S)-1-(4-(methyloxy)phenyl)ethyl)-2-pyridinamine]
CCN1CC2CC1CN2c1nn(-c2ccnc(NCc3ccccc3)c2)c2cc(F)ccc12 (centres unmarked) [Example 161, 4-(3-(5-ethyl-2,5-diazabicyclo[2.2.1]hept-2-yl)-6-fluoro-1H-indazol-1-yl)-N-(phenylmethyl)-2-pyridinamine]
c1ccc(CNc2cc(-n3nc(N4CC5CC4CN5)c4ccccc43)ccn2)cc1 (centres unmarked) [Example 133, 4-(3-(2,5-diazabicyclo[2.2.1]hept-2-yl)-1H-indazol-1-yl)-N-(phenylmethyl)-2-pyridinamine]
CC(C)N1CC2CC1CN2c1nc(NCCO)cc(-c2ccnc(N[C@@H](C)c3ccccc3)c2)n1 (stereo partly drawn) [Example 26, 2-{2-(5-Isopropyl-(1S,4S)-2,5-diaza-bicyclo[2.2.1]hept-2-yl)-6-[2-(S)-(1-phenyl-ethylamino)-pyridin-4-yl]-pyrimidin-4-ylamino}-ethanol]
Cc1ccc2c(N3C[C@@H]4C[C@H]3CN4C(=O)OC(C)(C)C)nn(-c3ccnc(N[C@H](C)c4ccccc4)c3)c2c1 [Example 169, 1,1-dimethylethyl (1S,4S)-5-(6-methyl-1-(2-(((1R)-1-phenylethyl)amino)-4-pyridinyl)-1H-indazol-3-yl)-2,5-diazabicyclo[2.2.1]heptane-2-carboxylate]
CC(C)N1CC2CC1CN2c1nc(-c2ccnc(N3CCc4ccccc4C3)c2)cc2nccn12 (centres unmarked) [Example 146, 2-(7-(2-(3,4-dihydro-2(1H)-isoquinolinyl)-4-pyridinyl)imidazo[1,2-c]pyrimidin-5-yl)-5-(1-methylethyl)-2,5-diazabicyclo[2.2.1]heptane]
CC(C)N1CC2CC1CN2c1nn(-c2ccnc(NCc3ccccc3F)c2)c2ccccc12 (centres unmarked) [Example 130, N-((2-fluorophenyl)methyl)-4-(3-(5-(1-methylethyl)-2,5-diazabicyclo[2.2.1]hept-2-yl)-1H-indazol-1-yl)-2-pyridinamine]
Fc1ccccc1CNc1cc(-c2cc3nccn3c(N3C[C@@H]4C[C@H]3CN4)n2)ccn1 [Example 57, {4-[5-((1S,4S)-2,5-Diaza-bicyclo[2.2.1]hept-2-yl)-imidazo[1,2-c]pyrimidin-7-yl]-pyridin-2-yl}-(2-fluoro-benzyl)-amine]
C[C@H](Nc1cc(-c2cc3nccn3c(N3CC4CC3CN4CCC(=O)O)n2)ccn1)c1ccccc1 (stereo partly drawn) [Example 138, 3-(5-(7-(2-(((1S)-1-phenylethyl)amino)-4-pyridinyl)imidazo[1,2-c]pyrimidin-5-yl)-2,5-diazabicyclo[2.2.1]hept-2-yl)propanoic acid]
C[C@H](Nc1cc(-c2cc3nccn3c(N3CC4CC3CN4CC(F)F)n2)ccn1)c1ccccc1 (stereo partly drawn) [Example 93, 4-(5-(5-(2,2-difluoroethyl)-2,5-diazabicyclo[2.2.1]hept-2-yl)imidazo[1,2-c]pyrimidin-7-yl)-N-((1S)-1-phenylethyl)-2-pyridinamine]
C[C@H](Nc1cc(-n2nc(N3CC4CC3CN4C)c3cc(F)ccc32)ccn1)c1ccccc1 (stereo partly drawn) [Example 142, 4-(5-fluoro-3-(5-methyl-2,5-diazabicyclo[2.2.1]hept-2-yl)-1H-indazol-1-yl)-N-((1S)-1-phenylethyl)-2-pyridinamine]
CCN1CC2CC1CN2c1nn(-c2ccnc(N[C@@H](C)c3ccccc3)c2)c2c(F)cccc12 (stereo partly drawn) [Example 153, 4-(3-(5-ethyl-2,5-diazabicyclo[2.2.1]hept-2-yl)-7-fluoro-1H-indazol-1-yl)-N-((1S)-1-phenylethyl)-2-pyridinamine]
CCN1CC2CC1CN2c1nc(-c2ccnc(NCc3ccccc3)c2)cc2nccn12 (centres unmarked) [Example 136, 4-(5-(5-ethyl-2,5-diazabicyclo[2.2.1]hept-2-yl)imidazo[1,2-c]pyrimidin-7-yl)-N-(phenylmethyl)-2-pyridinamine]
C[C@@H](Nc1cc(-n2nc(N3C[C@@H]4C[C@H]3CN4)c3ccc(C(F)(F)F)cc32)ccn1)c1ccccc1 [Example 175, 4-(3-((1S,4S)-2,5-diazabicyclo[2.2.1]hept-2-yl)-6-(trifluoromethyl)-1H-indazol-1-yl)-N-((1R)-1-phenylethyl)-2-pyridinamine]
